{"source": "paper PMC12040169", "about": "(PLOS Biology, 2025)", "note": "This is one part of the list.", "data": [{"system": "T1, CTL2-GFP (C. trachomatis L2/434/Bu, GFP-expressing)", "T1 construct": "L2/434/Bu, GFP-expressing", "parameters": "species or system HeLa; Intracellular C. trachomatis growth in HeLa cells, bulk GFP fluorescence relative to DMSO", "conditions": "bulk GFP, single well; 28.5 h, 10 µM; inhibitor", "units": {"% of control remaining": "%"}, "values": [{"compound": "O=C1/C(=C\\Nc2cccc3cccnc23)Sc2ccccc21", "note": "[CBK261647]", "% of control remaining": 101.24}, {"compound": "O=C(c1sc2ccccc2c1Cl)n1cnc2ccccc21", "note": "[CBK262216]", "% of control remaining": 128.601}, {"compound": "OCCOCCN1CCN(C(=S)Nc2ccccc2)CC1", "note": "[CBK018046]", "% of control remaining": 124.321}, {"compound": "O=C(/C=C/c1ccc(Br)cc1)N1CCN(Cc2ccc3c(c2)OCO3)CC1", "note": "[CBK074434]", "% of control remaining": 100.686}, {"compound": "Cc1cccc(Nc2[nH]c3cc(C)ccc3c2[N+](=O)[O-])c1", "note": "[CBK266303]", "% of control remaining": 128.619}, {"compound": "COc1ccc(C(O)c2coc3ccc(O)c(CN(C)C)c23)cc1", "note": "(centres unmarked) [CBK263083]", "% of control remaining": 112.056}, {"compound": "COc1ccc(Cn2c(=O)n(C(=O)CCc3cccc(OC)c3)c3ccccc32)cc1", "note": "[CBK106557]", "% of control remaining": 131.92}, {"compound": "CCC(c1nc2ccccc2c(=O)n1-c1cccnc1)N1C(=O)c2ccccc2C1=O", "note": "(centres unmarked) [CBK268300]", "% of control remaining": 145.529}, {"compound": "CSCCNC(=O)c1coc(COc2ccc3sc(C)nc3c2)n1", "note": "[CBK307004]", "% of control remaining": 116.117}, {"compound": "CCNS(=O)(=O)c1ccc2c(c1)N(Cc1csnn1)CC2", "note": "[CBK306161]", "% of control remaining": 172.498}, {"compound": "Cc1cc(S(=O)(=O)NCCC#N)c(C)cc1Cl", "note": "[CBK043680]", "% of control remaining": 109.648}, {"compound": "CCOC(=O)[C@H]1CN(C(=O)C(C)(C)NC(=O)OC(C)(C)C)C[C@@H]1c1cc2cc(C)ccc2o1", "note": "[CBK001599]", "% of control remaining": 94.0871}, {"compound": "Cc1ccc(S(=O)(=O)N(CC(=O)O)c2ccccc2C)cc1", "note": "[CBK262423]", "% of control remaining": 100}, {"compound": "Cc1ccc(C2=NN(C(=O)CCC(=O)O)C(c3ccc4nccnc4c3)C2)cc1", "note": "(centres unmarked) [CBK287802]", "% of control remaining": 121.893}, {"compound": "O=C(NCCN1CCCC1)C1CCCN(c2nc3c(-c4ccccc4)csc3c(=O)[nH]2)C1", "note": "(centres unmarked) [CBK215507]", "% of control remaining": 120.655}, {"compound": "COc1cc(CO)c(-c2c[nH][nH]c2=O)cc1OC", "note": "[CBK009476]", "% of control remaining": 105.545}, {"compound": "CC(=O)Nc1ccc(N2C(=O)CSC2c2ccccc2[N+](=O)[O-])cc1", "note": "(centres unmarked) [CBK294443]", "% of control remaining": 133.557}, {"compound": "CCCC/C=C/c1cncc(NC2CCC(O)CC2)n1", "note": "(centres unmarked) [CBK037840]", "% of control remaining": 117.658}, {"compound": "COc1ccccc1C(=O)N1CCC(c2nc(C)n3ccccc23)C1", "note": "(centres unmarked) [CBK282221]", "% of control remaining": 119.487}, {"compound": "COc1ccc(N(CC(=O)Nc2cccc3cccnc23)S(=O)(=O)c2ccc(C)cc2)cc1", "note": "[CBK263965]", "% of control remaining": 128.578}, {"compound": "O=C1CCC(=O)N1CCOc1nccnc1OC1CCN(Cc2ccc(Cl)cc2)CC1", "note": "[CBK084338]", "% of control remaining": 101.74}, {"compound": "Cc1ccc(Cn2nnc3c(O)nc(C4CCN(C(=O)CC(C)(C)C)CC4)nc32)cc1", "note": "[CBK293970]", "% of control remaining": 111.546}, {"compound": "O=C(c1cc(F)c(F)cc1F)N1CCC2(CCCN(C/C=C/c3ccccc3)C2)C1", "note": "(centres unmarked) [CBK132001]", "% of control remaining": 105.742}, {"compound": "O=C(CCSc1ccccc1)Nc1ccccc1C(=O)N1CCCCC1", "note": "[CBK269545]", "% of control remaining": 174.044}, {"compound": "Cc1ccc(-c2nc(C)sc2CC(=O)N(C)CCN(C)C)cc1", "note": "[CBK282175]", "% of control remaining": 121.663}, {"compound": "Cc1nc(-c2cc3c(s2)CCN(Cc2ccc(CO)o2)C3)cs1", "note": "[CBK306411]", "% of control remaining": 119.3}, {"compound": "Cc1nc(C(Cc2ccsc2)NC(=O)c2cc[nH]n2)sc1C", "note": "(centres unmarked) [CBK284776]", "% of control remaining": 146.791}, {"compound": "CCC(CO)Nc1nccnc1-c1cccs1", "note": "(centres unmarked) [CBK036800]", "% of control remaining": 182.847}, {"compound": "CC(=O)Nc1cccc(-n2c(C)nnc2SCC2CCCCC2)c1", "note": "[CBK304590]", "% of control remaining": 95.9421}, {"compound": "CCOc1cc(C2Nc3ccccc3NC3=C2C(=O)C(C(=O)OC)C(C)C3)ccc1OC(C)C", "note": "(centres unmarked) [CBK268456]", "% of control remaining": 141.948}, {"compound": "Cc1cc(C)nc(N2CCCC(O)(c3nc(C)c(CCOc4ccccc4)s3)CC2)n1", "note": "(centres unmarked) [CBK285924]", "% of control remaining": 93.2301}, {"compound": "CC(C)(C)OC(=O)N1CCC(c2nc3ccccc3cc2N)CC1", "note": "[CBK285038]", "% of control remaining": 164.222}, {"compound": "NC(=S)NC(=O)CN1C(=O)c2ccccc2C1=O", "note": "[CBK264111]", "% of control remaining": 122.081}, {"compound": "COc1ccc(-c2cnc(N)c(NCC(C)C)n2)c(OC)c1OC", "note": "[CBK063855]", "% of control remaining": 133.009}, {"compound": "Cc1cccc(CCNC(=O)C2CN(C(=O)C3CCN(C)CC3)C2)c1", "note": "[CBK281967]", "% of control remaining": 158.313}, {"compound": "COc1ccccc1CC(C)NC(=O)CCn1ccc2ccncc21", "note": "(centres unmarked) [CBK285175]", "% of control remaining": 125.749}, {"compound": "COC(C)(C)C(=O)N1CCC2(C/C=C/Cc3ccccc3OCC(=O)NCCNC2=O)CC1", "note": "[CBK292001]", "% of control remaining": 121.702}, {"compound": "COc1cc2c(cc1OC)CN(CC1CCCCC1)CC2", "note": "[CBK138321]", "% of control remaining": 87.9718}, {"compound": "COc1cccc(C(NC(=O)C2CCN(Cc3cccs3)CC2)c2cnccn2)c1", "note": "(centres unmarked) [CBK148572]", "% of control remaining": 108.768}, {"compound": "OC(Cn1nc(-c2ccccc2)cc1-c1ccccc1)Cn1c2ccc(Cl)cc2c2cc(Cl)ccc21", "note": "(centres unmarked) [CBK261418]", "% of control remaining": 92.7913}, {"compound": "COCCn1cnnc1C(C)NC(=O)c1nc2ccccc2[nH]1", "note": "(centres unmarked) [CBK307366]", "% of control remaining": 113.061}, {"compound": "C=C(C)CNc1ccccc1C(=O)OC", "note": "[CBK003656C]", "% of control remaining": 127.923}, {"compound": "CC(C)[C@H](NC(=O)C1CC(=O)N(c2ccc(F)cc2)C1)C(=O)N1CCCC1C(=O)O", "note": "(some centres unmarked) [CBK286723]", "% of control remaining": 117.35}, {"compound": "O=C(O)C1CC=CCC1C(=O)N1CCN(C(=O)c2ccco2)CC1", "note": "(centres unmarked) [CBK299784]", "% of control remaining": 159.461}, {"compound": "Cc1sc2nc(SCc3nc(-c4ccccc4)no3)n(-c3ccccc3)c(=O)c2c1C", "note": "[CBK266492]", "% of control remaining": 117.033}, {"compound": "O=C(O)c1ccc(NC(=O)c2cn(-c3ccccc3)nc2-c2cc3ccccc3o2)cc1", "note": "[CBK266587C]", "% of control remaining": 162.53}, {"compound": "C[C@@H]1CN[C@@H](C)CN1Cc1cc(NS(=O)(=O)c2ccccc2Cl)cc2ccoc12", "note": "[CBK107211T]", "% of control remaining": 131.118}, {"compound": "O=S(=O)(c1ccc(Cl)s1)N1CCN(Cc2ccc3c(c2)OCO3)CC1", "note": "[CBK270324]", "% of control remaining": 122.659}, {"compound": "Cc1nncn1-c1ccc(Cl)cc1C(=O)c1ccccc1Cl", "note": "[CBK012372]", "% of control remaining": 97.2881}, {"compound": "O=C(CC1CC1)NCc1ccc(-c2csnn2)cc1", "note": "[CBK149287]", "% of control remaining": 120.928}]}]}
